Consider 1 substance from paper PMC5655446.

Amino acid sequences for entries named in this document (tags omitted). Residues count along the entry.
UniProt A5F5Y3, residues 18-334: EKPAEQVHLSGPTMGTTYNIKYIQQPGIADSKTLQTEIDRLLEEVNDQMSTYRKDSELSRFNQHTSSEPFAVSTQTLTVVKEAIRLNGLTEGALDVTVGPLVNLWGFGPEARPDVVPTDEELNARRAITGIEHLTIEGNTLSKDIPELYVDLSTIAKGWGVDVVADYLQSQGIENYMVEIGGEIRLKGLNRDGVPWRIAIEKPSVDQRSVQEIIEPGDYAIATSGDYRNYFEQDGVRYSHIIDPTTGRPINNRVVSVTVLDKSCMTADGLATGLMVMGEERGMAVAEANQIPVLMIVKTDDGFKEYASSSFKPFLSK

These are yes or no findings as the source states them, for the method shown.

The target in the assay is Vibrio cholerae ApbE (alternative pyrimidine biosynthesis protein), recombinant, without the leader sequence (Vibrio cholerae) (UniProt A5F5Y3). The experiment in a line: SEC; each protein run alone on HiLoad 16/600 Superdex 200 pg; 150 mM NaCl, 10 mM HEPES, pH 8.0; both purified.

As to “Vibrio cholerae ApbE (alternative pyrimidine biosynthesis protein), recombinant, without the leader sequence (from UniProt A5F5Y3 18-334) (enzyme)”, the binding result is listed as “no binding”.
